## Percent effect of library compounds

Chains of the proteins cited; added tags and fusions are not shown. Residues count along the entry.
UniProt A4I591, 1-473: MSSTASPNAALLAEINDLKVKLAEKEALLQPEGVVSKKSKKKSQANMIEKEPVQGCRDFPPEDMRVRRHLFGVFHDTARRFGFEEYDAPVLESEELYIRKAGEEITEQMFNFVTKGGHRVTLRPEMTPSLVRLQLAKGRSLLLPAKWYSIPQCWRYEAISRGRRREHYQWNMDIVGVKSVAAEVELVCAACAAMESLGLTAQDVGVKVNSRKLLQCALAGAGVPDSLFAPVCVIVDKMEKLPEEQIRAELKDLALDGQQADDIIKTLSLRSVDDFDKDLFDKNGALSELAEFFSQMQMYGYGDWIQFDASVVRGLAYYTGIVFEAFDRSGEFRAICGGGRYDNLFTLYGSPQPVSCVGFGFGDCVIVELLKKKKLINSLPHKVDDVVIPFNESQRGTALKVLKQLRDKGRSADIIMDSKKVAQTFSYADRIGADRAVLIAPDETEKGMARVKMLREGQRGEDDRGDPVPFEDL
UniProt P9WFT3, whole entry: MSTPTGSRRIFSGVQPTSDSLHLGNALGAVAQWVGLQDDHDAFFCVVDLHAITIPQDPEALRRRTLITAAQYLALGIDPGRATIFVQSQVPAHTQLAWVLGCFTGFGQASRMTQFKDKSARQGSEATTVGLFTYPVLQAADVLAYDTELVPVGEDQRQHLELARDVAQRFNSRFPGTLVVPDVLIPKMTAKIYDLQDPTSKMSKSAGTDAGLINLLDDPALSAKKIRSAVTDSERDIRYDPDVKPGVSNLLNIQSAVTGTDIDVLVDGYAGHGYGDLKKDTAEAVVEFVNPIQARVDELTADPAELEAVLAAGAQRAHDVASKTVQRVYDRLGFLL
UniProt P9WNZ1, whole entry: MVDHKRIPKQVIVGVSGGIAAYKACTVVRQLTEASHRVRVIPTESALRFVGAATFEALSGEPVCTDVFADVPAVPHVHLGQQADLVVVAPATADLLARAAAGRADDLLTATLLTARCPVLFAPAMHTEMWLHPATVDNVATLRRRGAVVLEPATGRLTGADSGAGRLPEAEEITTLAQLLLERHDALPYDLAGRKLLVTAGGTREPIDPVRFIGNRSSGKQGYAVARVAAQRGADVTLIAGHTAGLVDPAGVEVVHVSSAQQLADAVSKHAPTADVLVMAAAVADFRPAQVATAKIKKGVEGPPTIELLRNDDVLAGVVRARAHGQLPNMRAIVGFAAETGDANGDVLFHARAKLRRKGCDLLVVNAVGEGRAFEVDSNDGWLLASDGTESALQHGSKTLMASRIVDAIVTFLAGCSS

Source: ChEMBL document CHEMBL3988442, “University of Dundee, Small-Polar-MMV Screening Library” (2021).

Values are the deposited “Percent Effect”, in %. How 0% and 100% were set is not recorded. Most values in the screen are low, and negative values occur. The compounds are a random part of those screened. A dash means the value is not listed here; it may have been measured.

LiHisRS: 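Enzyme assay of histidyl-tRNA synthetase; the read-out is not stated. Target: Histidine-tRNA ligase, Leishmania infantum (UniProt A4I591). Compounds at 30 µM. The record gives no direction; compounds that gave an IC50 in retests scored well above the rest, so higher reads as stronger inhibition. The assay is labelled LdHisRS but filed under L. infantum. Size under these conditions: about 69,000 compounds, about 410 of them at 50% or above in at least one test.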
MtTrpRS: 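Enzyme assay of tryptophanyl-tRNA synthetase; the read-out is not stated. Target: Tryptophan-tRNA ligase, Mycobacterium tuberculosis (UniProt P9WFT3). Compounds at 10 µM. Direction is not recorded; retested compounds ran higher, which suggests that high means inhibition. Of about 65,000 compounds tested this way, about 64 (0.098%) reached 50% or more in at least one test.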
Toxoplasma: 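Assay of Toxoplasma gondii numbers, read through their beta-galactosidase reporter with a colour substrate. Tested at 10 µM. Higher reads as fewer parasites (inferred from which compounds were picked for retests). Of about 67,000 compounds tested this way, about 260 (0.38%) reached 50% or more in at least one test.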
CoaBC: 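Enzyme assay of CoaBC with a phosphate dye (Biomol Green) read at 650 nm. Target: Coenzyme A biosynthesis protein CoaBC, Mycobacterium tuberculosis (UniProt P9WNZ1). Tested at 30 µM. Direction is inferred from only a few compounds that gave an IC50; most scored high, so higher reads as stronger inhibition. Most strong results did not repeat in a second test. About 67,000 compounds were tested under these conditions; 0.06% (about 40) showed 50% or more at least once.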

| # | Compound | LiHisRS | MtTrpRS | Toxoplasma | CoaBC |
|---|---|---|---|---|---|
| 1 | `Cc1nc(CN2CCc3nc(N4CCCC4)nc(NC(C)C)c3C2)cs1` | 92.31% | -4.167% | 2.181% | - |
| 2 | `COC(=O)CCCNC(=O)Nc1ccccc1OC` | 19.18% | 3.641% | -9.302% | 6.818% |
| 3 | `Cc1nnc(CN2CCCC(c3noc(C4CC4)n3)C2)o1` (stereo unspecified) | 13.16% | -0.8475% | -8.435% | -5.704% |
| 4 | `CCCS(=O)(=O)NC(=O)c1sc(C2CCCC2)nc1C` | 11.29% | -1.653% | 2.862% | 3.265% |
| 5 | `Cc1c(CN2CCCC(C(=O)c3ccc(C(C)(C)C)cc3)C2)cnn1C` (stereo unspecified) | 17.5% | -1.447% | 35.16% | 5.839% |
| 6 | `Cc1noc(C)c1CNC(=O)N1CCCC(C)CC1` (stereo unspecified) | 12.9% | 1.886% | 2.308% | -3.758% |
| 7 | `Cc1ccc(-c2nnc(CN3CCOC(Cn4cccn4)C3)o2)cc1` (stereo unspecified) | -14.61% | 3.383% | - | 6.17% |
| 8 | `O=C(O)C(F)(F)F.[H][C@@]12CCN(Cc3c(C)noc3C)C[C@]1(C(=O)N1CCCC1)CCO2` | - | - | -8.176% | - |
| 9 | `CN(C)CCN1CCC2(CCCN(Cc3cccn3C)C2)C1=O` (stereo unspecified) | 33% | -2.957% | - | 2.349% |
| 10 | `CS(=O)(=O)CCCN1CCOC2(CCc3ccccc32)C1` (stereo unspecified) | 0% | -0.149% | 11.58% | -2.689% |
| 11 | `CN(C(=O)c1ccc(NC(=O)c2cc[nH]n2)cc1)C1CCCCC1` | 2% | -3.804% | -1.325% | 5.693% |
| 12 | `c1ccc(CN2CCC3(COCc4cnc(NCC5CC5)nc43)C2)cc1` (stereo unspecified) | 14.52% | -0.3003% | 6.583% | 3.576% |
| 13 | `CC(C)(C)C(=O)N1C[C@@H]2COC[C@]2(c2nnc(C3CC3)o2)C1` | 26.03% | 2.329% | - | -6.036% |
| 14 | `N[C@H]1CCCN(C(=O)c2cnc(COc3ccccc3)nc2O)C1` | 12.12% | -1.385% | -2.152% | 1.381% |
| 15 | `CCN(Cc1cnn(C)c1)C[C@H]1CC[C@@H](Cc2ccc(OC)nc2)O1` | 1.042% | -4.231% | -2.387% | -2.232% |
| 16 | `COC(=O)c1ccc(NC(=O)CCNCc2ccco2)cc1` | 5.31% | 0.5442% | 13.18% | 3.145% |
| 17 | `CS(=O)(=O)N1C[C@H]2CCC[C@@]2(COCC2CCOCC2)C1` | 14.29% | 0.1833% | - | 6.016% |
| 18 | `O=C1C[C@H]2CC[C@@H](CN1)N2c1cc(-c2ccccc2F)nc2ccnn12` | 16.46% | -2.33% | - | 5.957% |
| 19 | `CNc1ncccc1C(=O)N1CCc2c(nc(N)[nH]c2=O)C1` | 22.35% | -0.9684% | 6.418% | 6.091% |
| 20 | `COC(=O)c1ccc(-c2cc(C(F)(F)F)cc(N(C)C)n2)cc1` | 8.333% | -7.005% | 4.575% | -5.524% |
| 21 | `CCC(C)NC(=O)CS(=O)(=O)Cc1nc(-c2cccs2)no1` (stereo unspecified) | 17.74% | -3.489% | 2.375% | 15.36% |
| 22 | `O=C(NCCN1C(=O)c2ccccc2C1=O)c1scnc1Cl` | 10.34% | -1.609% | 5.212% | 1.567% |
| 23 | `CCN(CC)Cc1nc2c(o1)CN(S(=O)(=O)c1cccs1)C2.O=C(O)C(F)(F)F` | - | - | 7.632% | - |
| 24 | `Cc1cccc(=O)n1CCCNc1nc(N(C)C)nc2c1CCNCC2` | 17.65% | -0.892% | -7.462% | -26.48% |
| 25 | `[H][C@]12CN(CC(=O)N(C)C)C(=O)[C@@]1([H])CN(c1cc(OC)ncn1)C2` | - | - | -3.722% | - |
| 26 | `Cc1noc(COCC(=O)Nc2cc(C)c(Br)cn2)n1` | 9.649% | 4.046% | -0.5882% | 2.947% |
| 27 | `COCCN1CCC2(C1)CN(c1ncccn1)C2` | 24% | -5.124% | - | -6.762% |
| 28 | `Cc1ccc(CN(CCCN2CCOCC2)Cc2[nH]cnc2C)o1.O=C(O)CC(O)(CC(=O)O)C(=O)O` | - | - | -8.908% | - |
| 29 | `CC(c1cc(O)nc(NC2CCCC2)n1)n1ncc2ccccc2c1=O` (stereo unspecified) | 8.633% | -0.5208% | -5.802% | 7.895% |
| 30 | `Cc1nc(C2CCCN(C(=O)c3cccc4c3OCO4)C2)sc1C` (stereo unspecified) | 14.78% | -9.585% | 14.53% | 6.743% |
| 31 | `Cn1cc(-c2cnc(N3CCOCC3)nc2)cc1C(=O)NCCO` | 6.569% | 3.172% | - | 0.7772% |
| 32 | `O=C1CC[C@H]2[C@H](CCN2C(=O)C2CCCO2)N1CCN1CCCC1` (stereo partly specified) | 3.883% | -0.402% | - | 2.826% |
| 33 | `O=C(N[C@H]1CN[C@H]2CCCO[C@H]21)c1cscn1` | 11.43% | -2.22% | - | 9.677% |
| 34 | `O=C(Cn1cccc(S(=O)(=O)N2CCCC2)c1=O)c1ccccc1Cl` | 17.2% | -0.9167% | 7.951% | 4.826% |
| 35 | `CN1CCN(C(=O)N2CCCC2)Cc2cccnc21` | 31.51% | -0.241% | 1.145% | 3.752% |
| 36 | `O=S1(=O)CCC(n2cc(CNc3ccccc3Br)cn2)C1` (stereo unspecified) | -8.571% | 8.153% | -9.31% | - |
| 37 | `O=C1Nc2ccccc2CN(C/C=C/c2ccccc2)C12CCNC2` (stereo unspecified) | 33.1% | -3.717% | 46.06% | 5.526% |
| 38 | `COc1cc(C)ccc1S(=O)(=O)N[C@H]1CN(C(C)=O)C[C@@H]1C1CC1` | 4.918% | 0.9762% | -15.44% | 6.579% |
| 39 | `O=C(C1CCOC1)N1CC[C@@H](O)[C@@H]1Cc1ccccc1` (stereo partly specified) | -70.73% | -0.3817% | 4.963% | -6.288% |
| 40 | `CCCNC(=O)c1cnc(N(C)C)nc1COC` | 11.65% | 0.201% | -2.51% | 1.75% |
| 41 | `CC(C)N1CC(C(=O)NCCc2csc(-c3ccncc3)n2)CC1=O` (stereo unspecified) | 14.15% | -0.08285% | -8.9% | 8.182% |
| 42 | `O=C(O)C(F)(F)F.[H][C@@]12CN(Cc3ccco3)C[C@]1([H])C(=O)N(c1ccsc1)C2` | - | - | -5.353% | - |
| 43 | `Cc1cccc(C(=O)Oc2cc(=O)n3cccc(C)c3n2)c1` | 7.895% | 1.295% | 2.644% | 2.532% |
| 44 | `CS(=O)(=O)CCN1CCC(Nc2c(Cl)cccc2C#N)CC1` | 17.28% | 8.74% | 7.368% | -1.152% |
| 45 | `Cc1noc(C2(C)CCCN(C(=O)c3cccnc3)C2)n1` (stereo unspecified) | 17.89% | 14.9% | -1.042% | 10.95% |
| 46 | `Cc1ncnc2c1CCN(S(=O)(=O)C1CC1)CC2` | 5.941% | - | 0% | 2.847% |
| 47 | `O=C([C@H]1C[C@H]2OCC[C@H]2N(C(=O)c2ccnnc2)C1)N1CCCCO1` | 17.14% | 7.486% | - | 6.515% |
| 48 | `O=C(O)C(F)(F)F.[H][C@]12CCN(CC3CC3)C[C@]1([H])CN(c1ncc(C)cn1)C2` | - | - | -7.89% | - |
| 49 | `Cc1ccnc(C2CCN(S(=O)(=O)c3cn(C)cn3)CC2)n1` | 11.58% | 2.725% | 1.895% | 2.676% |
| 50 | `O=C1CCC2(CCN(c3ncc(F)cn3)CC2)N1CCN1CCCC1` | 10.68% | 6.284% | -2.882% | -0.1267% |
| 51 | `CCO[C@H]1C[C@@H](O)C12CCN(C1Cc3ccccc3C1)CC2` | 10.2% | -1.975% | 5.364% | -5.741% |
| 52 | `CCCc1csc(-c2ccc(S(C)(=O)=O)cc2)n1` | 23.89% | -5.453% | 7.191% | -6.542% |
| 53 | `Cc1cccc(-c2nc(N)nc3c2CN(C(=O)C2CCCC2)C3C)c1` (stereo unspecified) | 7.692% | -2.463% | 6.669% | -3.774% |
| 54 | `COc1ncccc1CN1CC[C@@]2(O)CCN(C(=O)C3CCC3)C[C@H]2C1` | 22.86% | 1.847% | - | 9.287% |
| 55 | `Cc1nc(C(C)NC(=O)NCc2nccn2CC(C)C)cs1` (stereo unspecified) | -1.408% | 0.3027% | 1.402% | - |
| 56 | `CC(C)NC(=O)Nc1ccc(CS(=O)(=O)C(C)(C)C)cc1` | 14.29% | -2.648% | -0.3519% | 0.6748% |
| 57 | `Cc1nc(-c2cccc(N3CCC(NC4CCSC4)CC3)c2)cs1` (stereo unspecified) | 10% | 1.729% | -12.85% | 0% |
| 58 | `O=C(O)C(F)(F)F.O=C(c1cccc(Cl)c1)N1CCCn2c(CN3CCCCC3)nnc2C1` | - | - | 0.6101% | - |
| 59 | `Cn1cc(CN2CCCC23CCN(C(=O)c2ccccc2)CC3)cn1.O=C(O)C(F)(F)F` | - | - | 6.956% | - |
| 60 | `O=C(NCCOCC(F)(F)F)c1ccc(-c2ccccc2)[nH]c1=O` | 6.14% | 2.119% | 17.83% | -3.376% |
| 61 | `CN(C)C(=O)CN1C[C@H]2CCN(C(=O)c3ccccc3)CC[C@H]2S1(=O)=O` | -0.885% | 0.8765% | - | 4% |
| 62 | `CN(CCNS(C)(=O)=O)CC(c1cccs1)N1CCOCC1` (stereo unspecified) | 11.11% | -1.687% | 6.313% | 1.621% |
| 63 | `COc1ccc(/C=C/CN2CCCC3(C2)CN(C)C(=O)O3)cc1` (stereo unspecified) | 15.05% | 13.78% | 4.207% | 12.14% |
| 64 | `COCC(=O)N1CCO[C@H]2[C@H](OCc3cccnc3)CC[C@@H]21` | 2.857% | -0.3255% | - | -0.3257% |
| 65 | `CC(C)=CCN1CCC2(CC1)c1ccccc1[C@@H](N1CCSCC1)[C@@H]2O` | 5.128% | -5.307% | 14.77% | -12.68% |
| 66 | `Cc1ccccc1-n1ncc(C(C)N)c1C` (stereo unspecified) | 16.46% | -4.361% | 15.6% | -1.141% |
| 67 | `COc1ccccc1NC(=O)NCc1cn[nH]c1` | 19.18% | 1.56% | -2.624% | 14.67% |
| 68 | `COc1ccc(CNC(=O)NC2CCC(O)CC2)c(C(F)(F)F)c1` (stereo unspecified) | 14.42% | -2.464% | -4.245% | 2.954% |

Some entries from above, unchanged:

Compound,LiHisRS,MtTrpRS,Toxoplasma,CoaBC
O=C(N[C@H]1CN[C@H]2CCCO[C@H]21)c1cscn1,11.43%,-2.22%,-,9.677%
CC(C)(C)C(=O)N1C[C@@H]2COC[C@]2(c2nnc(C3CC3)o2)C1,26.03%,2.329%,-,-6.036%
Cn1cc(CN2CCCC23CCN(C(=O)c2ccccc2)CC3)cn1.O=C(O)C(F)(F)F,-,-,6.956%,-
CCN(CC)Cc1nc2c(o1)CN(S(=O)(=O)c1cccs1)C2.O=C(O)C(F)(F)F,-,-,7.632%,-
O=C(O)C(F)(F)F.[H][C@@]12CN(Cc3ccco3)C[C@]1([H])C(=O)N(c1ccsc1)C2,-,-,-5.353%,-